# The name of at least one read-out is uncertain.
# Test: Tolerability in mice, intravenous injection
# Assay type: in vivo
# Details: mice 18 - 20 g
# Protocol: Remarks: Nutrient agar, 37° C, 48 hours for m. smegmatis. Sauton's liquid medium, 37° C, 4 weeks for other 3 strains. The strains SMR and Matsudo resistant to streptomycin at 1000 μg/ml or higher. Mice (18 - 20 g.) tolerated intravenous injection of 50 mg./kg. of mimosamycin.
# (A) and 250 mg./kg.(B and C), respectively.
row,Substance,tolerated dose [mg/kg]
1,chlorocarcin A,25
2,chlorocarcin B,250
3,chlorocarcin C,250
